Results are given in words; binding and its absence hold for the method and conditions named. Some entries that bind do so weakly or less than the wild type. Sequences can lack the tags named with a protein.
Target: human IL-1R3 expressed on cells (SK-MEL-30 and other human cell lines) (human) (UniProt Q9NPH3)
Test: effector cell reporter assay with SK-MEL-30 target cells (Example 21)

Chains of the proteins cited; added tags and fusions are not shown. Residues count along the entry.
UniProt Q9NPH3, residues 21-570: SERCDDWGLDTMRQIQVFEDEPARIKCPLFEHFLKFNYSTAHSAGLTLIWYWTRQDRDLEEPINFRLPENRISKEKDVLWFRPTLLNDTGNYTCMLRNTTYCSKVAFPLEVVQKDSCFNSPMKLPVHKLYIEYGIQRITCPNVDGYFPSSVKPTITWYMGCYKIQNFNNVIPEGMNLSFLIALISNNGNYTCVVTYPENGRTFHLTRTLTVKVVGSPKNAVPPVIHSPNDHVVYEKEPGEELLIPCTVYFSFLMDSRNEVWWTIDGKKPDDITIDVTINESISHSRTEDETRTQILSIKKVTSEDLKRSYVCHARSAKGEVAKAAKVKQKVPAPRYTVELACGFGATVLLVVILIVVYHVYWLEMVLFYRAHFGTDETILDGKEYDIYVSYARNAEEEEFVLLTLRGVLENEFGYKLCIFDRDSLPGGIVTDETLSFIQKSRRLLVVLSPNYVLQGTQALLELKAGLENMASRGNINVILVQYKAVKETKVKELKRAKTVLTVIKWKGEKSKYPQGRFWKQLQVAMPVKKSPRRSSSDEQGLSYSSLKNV

binding: binds
B1: MAB-16-0030 produced as an IgG1 antibody (IgG1 Fc-part without LALA) (antibody, V domains shown)
VH: EVQLEESGGRLVQPGTSLRLSCAVSGFSLSSYDMSWVRQAPGKGLEWVSTIYIGGTTAYASWPKGRFTISKTNSKNTLYLQMNSLRAEDTAVYFCARLQGANYYNSLALWGQGTLVTVSS
VL: DVQMTQSPSSLSASVGDRVTITCQASQSIYSFLSWYQQKPGQAPKLLIYAASDLESGVPSRFSGSGSGTDFTLTISSLQPEDFATYYCQCNYIIDYGAFGQGTKVVIK
